Test results from PubChem BioAssay AID1487 (National Center for Advancing Translational Sciences (NCATS), 2009).
This is one part of the list. The main result of the screen is listed elsewhere. These columns were measured beside it and carry no call. Compounds called inactive in the main read-out are mostly missing here. Potencies come from curve fits of mixed quality, noted in brackets.

Assay: qHTS Assay for Modulators of Lamin A Splicing
Conditions: HeLa LMNA splicing GFP/RFP minigene ratio, 48 h
Summary of the method: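 S3 HeLa stable clones carrying a lamin A-EGFP splicing minigene plus DsRed2 were seeded at 600 cells/well in Opti-MEM with 2% FBS, pin-dosed and incubated 48 h at 37°C. Acumen cytometry (488 nm) gave the GFP/RFP total-intensity ratio.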

[1] = measured here: RFP viability control channel
[2] = measured here: GFP splicing reporter channel

Compound | AC50 [1] | AC50 [2]
CCN(Cc1ccccc1)C(c1cccc(C#N)c1)c1nnnn1C(C)(C)C (configuration not stated) | 17.8 µM [rising, single point] | –
O=C(Nc1ccc(F)cc1F)NC1CCN(S(=O)(=O)c2ccc(F)cc2)CC1 | 1.12 µM [falling, full curve, poor fit] | –
CC1CCN(S(=O)(=O)c2ccc(S(=O)(=O)N3CCN4CCCC4C3)cc2)CC1 (configuration not stated) | 0.1 µM [falling, single point] | –
CC[N+]1(C)CC2CCC(C)(C1)C2(C)C (configuration not stated) | 50.1 µM [falling, partial curve, poor fit] | –
CC(Oc1ccc(F)cc1)C(=O)Nc1cc(-c2ccc(F)c(F)c2)no1 (configuration not stated) | – | 20 µM [falling, single point]
Cc1ccc(S(=O)(=O)NCC2CCC(C(=O)N(C)Cc3ccccc3)CC2)cc1 (configuration not stated) | – | 35.5 µM [falling, single point]
Cc1ccc(C2CC(c3ccc(Cl)cc3)=NNC2=O)cc1 (configuration not stated) | 28.2 µM [rising, single point] | 20 µM [rising, partial curve, poor fit]
CN(C)C(C)(C)C#CCCCCC#CC(C)(C)N(C)C | 0.355 µM [rising, full curve, poor fit] | –
S=C(Nc1ccccc1)Nc1nc2ccccc2n1CCOc1ccc(Cl)cc1 | 35.5 µM [falling, single point] | 35.5 µM [falling, single point]
Cc1cc(C)cc(NC(=O)CN(C)S(=O)(=O)c2ccc3[nH]c4c(c3c2)CCCC4)c1 | 0.02 µM [rising, full curve, poor fit] | 0.0224 µM [rising, partial curve, poor fit]
CC(C)OCCCNC(=O)C1CCC(CNS(=O)(=O)c2ccc(Cl)cc2)CC1 (configuration not stated) | 35.5 µM [rising, single point] | 35.5 µM [rising, single point]
CCCc1nc2ccccc2c(=O)n1/N=C/c1c(C)[nH]n(-c2ccc(C)cc2)c1=O | 15.8 µM [rising, partial curve] | –
Cc1ccccc1OCC(=O)N/N=C1\SCC(=O)N1Cc1ccccc1 | 12.6 µM [rising, partial curve] | –
COc1cc(/C=C(/C#N)c2ccc(C)cc2)ccc1Oc1ccc([N+](=O)[O-])cn1 | 15.8 µM [rising, single point] | –
COc1ccc(NS(=O)(=O)c2cc(NC(=O)c3ccco3)ccc2N2CCCC2)cc1 | 35.5 µM [rising, single point] | –
Cc1ccc(NC(=O)C2CCCN(S(=O)(=O)c3c(C)noc3C)C2)cc1F (configuration not stated) | 31.6 µM [rising, single point] | 31.6 µM [rising, single point]
CN(C)c1cc2c(Nc3ccc4c(cnn4Cc4ccccc4)c3)ncnc2cn1 | 0.00447 µM [falling, full curve, poor fit] | 0.00355 µM [falling, full curve, poor fit]
Cc1ccc(-c2nc(-c3cccnc3)sc2CC(=O)Nc2ccc(C)c(Cl)c2)cc1 | 22.4 µM [rising, single point] | 14.1 µM [rising, single point]

Compound | AC50 [1] | AC50 [2]
S=C(NCCCN1CCOCC1)Nc1ccc(Nc2ccccc2)cc1 | 22.4 µM [rising, single point] | –
CCSc1nc2sc3c(c2c(=O)n1C1CCCCC1)CCN(C)C3 | 22.4 µM [rising, partial curve] | 14.1 µM [rising, single point]
O=C(Nc1ccc2c(c1)N(C1CCCC1)C(=O)c1ccccc1S2)c1cccc(F)c1 | – | 17.8 µM [falling, partial curve, poor fit]
CC(C)Oc1ccc(CNC(=O)CCn2c(=O)c3cccn3c3ccc(F)cc32)cc1 | 0.112 µM [rising, full curve] | 0.112 µM [rising, full curve, poor fit]
COc1ccc(COc2cc(-c3cccc(OC)c3)nc3ccc(NC(=O)c4ccccc4)cc23)cc1 | – | 1.58 µM [falling, partial curve, poor fit]
COc1cc(/C=N/NC(=S)Nc2cccc(C(=O)O)c2)cc(OC)c1OC | 0.708 µM [falling, full curve, poor fit] | –
CC(C)c1ccc2c(c1)C1(NN=C(c3ccccc3)S1)C(=O)N2 (configuration not stated) | 5.01 µM [rising, partial curve] | –
O=C(NCCc1csc(-c2cccc(F)c2)n1)c1ccc(Br)o1 | 0.00355 µM [falling, full curve, poor fit] | 3.55 µM [falling, partial curve]
CCCCC12CN3CC(C)(CN(C1)C31C(=O)N(C)c3ccc(C)cc31)C2=O (configuration not stated) | 14.1 µM [rising, partial curve] | –
COc1c(N2CCN(C(=S)NCc3ccccc3)C(C)C2)c(F)cc2c(=O)c(C(=O)O)cn(C3CC3)c12 (configuration not stated) | 14.1 µM [rising, single point] | –
COc1ccc2[nH]cc(C(=O)CNc3nc(C)cs3)c2c1 | 12.6 µM [rising, single point] | –
Clc1ccc(-c2cn3c(n2)CCC3)cc1 | 15.8 µM [rising, single point] | –
CCOC(=O)c1c(C)c(C(=O)N2CCN(c3cccc(Cl)c3)CC2)c(C)n1C | 35.5 µM [rising, single point] | 25.1 µM [rising, single point]
Cc1cc(=O)[nH]c(SCC(=O)c2ccc(C)c(C)c2)n1 | 35.5 µM [rising, single point] | 35.5 µM [rising, single point]
Cc1ccc(C)c(OCCn2cc(/C=C(/C#N)C(=O)NCC3CCCO3)c3ccccc32)c1 (configuration not stated) | 35.5 µM [rising, single point] | –
Cc1ccc(C(=O)CC(=O)COc2ccc(Cl)cc2C)cc1 | 35.5 µM [rising, single point] | –
Cc1ccc(S(=O)(=O)Nc2nc(C)cc(N/N=C/c3ccc(O)cc3)n2)cc1 | 25.1 µM [rising, single point] | –

Three entries out of the list, sorted by length of the SMILES, smallest number first:
Compound | AC50 [1] | AC50 [2]
Cc1cc(=O)[nH]c(SCC(=O)c2ccc(C)c(C)c2)n1 | 35.5 µM [rising, single point] | 35.5 µM [rising, single point]
O=C(Nc1ccc2c(c1)N(C1CCCC1)C(=O)c1ccccc1S2)c1cccc(F)c1 | – | 17.8 µM [falling, partial curve, poor fit]
Cc1ccc(C)c(OCCn2cc(/C=C(/C#N)C(=O)NCC3CCCO3)c3ccccc32)c1 (configuration not stated) | 35.5 µM [rising, single point] | –
